Results reported in patent US11427783B2, “Perfuming compositions” (Firmenich SA, priority 2016, dated 2022).

Assay: Volatility of perfuming compounds in air
Type: physicochemical
Conditions: Table 10, perfuming compounds having a woody note

Volatility (μg/l air): 1530.76 μg/l air
SMILES: CC(C)CC(=O)O [3-METHYLBUTANOIC ACID]
